# Data published in patent publication US5639726A, “Peptide mediated enhancement of thrombolysis methods and compositions” (The Regents of the University of Michigan, priority 1994, dated 1997).
# Sequences of proteins named here, by UniProt entry; tags and fusion partners are left off. Residues count along the entry.
# UniProt P05121, 24-402: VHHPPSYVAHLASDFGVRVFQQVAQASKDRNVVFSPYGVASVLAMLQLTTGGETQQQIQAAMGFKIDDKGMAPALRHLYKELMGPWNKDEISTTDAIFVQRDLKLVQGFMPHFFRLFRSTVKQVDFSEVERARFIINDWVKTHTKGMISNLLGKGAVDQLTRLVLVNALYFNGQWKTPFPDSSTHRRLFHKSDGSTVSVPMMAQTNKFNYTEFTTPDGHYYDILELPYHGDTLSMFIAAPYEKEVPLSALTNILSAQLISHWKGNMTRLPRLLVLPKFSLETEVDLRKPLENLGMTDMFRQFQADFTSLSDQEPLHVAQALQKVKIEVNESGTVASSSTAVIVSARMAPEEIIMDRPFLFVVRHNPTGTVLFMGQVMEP
# Not every detail of the peptide structures is certain; ends, links or a residue may be inferred. Ends that are not written are not given here.
# Columns and labels:
# [1] = target: T1, PAI-1 (Homo sapiens, UniProt P05121); test: SDS-PAGE of peptide treated PAI-1 reacted with tPA, uPA or trypsin; type: biochemical; details: free PAI-1 preincubated with peptide, then tPA (uPA or trypsin)
# T1 construct: made in house; host or cells: E. coli (vector pET3a)
# Procedure: SDS-polyacrylamide gel electrophoresis (SDS-PAGE) under nonreducing conditions was carried out according to the method of Laemmli (Laemmli, 1970) on 10% gels. Native gel electrophoresis with 5% gels was carried out by omitting SDS and boiling from Laemmli's method. All gels were stained with Coomassie brilliant blue. Gels of PAI-peptide samples were scanned with an LKB Ultroscan XL Laser Densitometer to determine the relative amounts of peptide-annealed and latent PAI.
# PAI that had been incubated with peptide was tested for inhibitory and substrate activity by incubating with tPA, uPA or trypsin. SDS-PAGE was then performed on the samples. Free PAI formed a complex band when incubated with any of the enzymes, as well as a faint band indicative of cleaved PAI. Because substoichiometric amounts of enzyme were used there was also a band for free PAI. When PAI was incubated with any of the peptides, the electrophoretic mobility was the same as that of free PAI after denaturing with SDS. When PAI was annealed to any of 8-mers, then allowed to react with tPA, uPA or trypsin, no PAI-enzyme complex band was seen.
# SDS-PAGE was performed using a PhastSystem (Pharmacia), Upssala, Sweden, according to manufacturer's instructions. Gels were stained with Coomassie Brilliant Blue. […]
# [2] = target: T1, PAI-1; test: Plasminogen activator inhibitor 1 activity assay (t-PA, Spectrozyme t-PA); type: biochemical; details: 37° C., PAI-1 0.7 μM, peptide 55 μM, 98±18 min without peptide
# Procedure: PAI-1 (0.7 μM) was incubated at 37° C. with either P1-P14 peptide or control peptide (55 μM) in 0.1M HEPES, 0.1M NACl, 0.1% PEG (MW 8000), pH 7.4 (assay buffer). At timed intervals 0-110 minutes), 5 μL of the PAI-1:peptide mixture was added to 96 well microtiter plates containing 45 μL of t-PA (0.03 μM in assay buffer), then incubated for 30 minutes at 37° C. Spectrozyme t-PA (final concentration of 150 μM) was added to yield a final reaction volume of 70 μL, and 30 minutes later the absorbance at 405 nm was determined in a THERMO-max (Molecular Devices, Palo Alto, Calif.) microplate reader. 100% PAI-1 activity was defined as activity observed at time zero, while 0% PAI-1 activity was defined as that observed in the absence of PAI-1. A standard t-PA activity curve, derived from absorbance values of varying concentrations of t-PA incubated in the absence of PAI-1, was used to determine PAI-1 activity.
# [3] = tested on: platelet-rich clots; test: In vitro clot lysis assay, platelet-rich clots; type: biochemical, human; details: 2.5×10^8 platelets/mL; t-PA 75 pM; 8±3% without peptide
# Procedure: Blood samples were collected by peripheral venipuncture from normal subjects into acid-citrate-dextrose anticoagulant (0.8% w/v citric acid, 2.2% trisodium citrate, 2.45% dextrose) at a ratio of 6 volumes of blood to 1 volume of anticoagulant. Donors had not consumed aspirin for at least 7 days prior to phlebotomy. Washed platelets were prepared by repeated centrifugation as previously described (Fay et al., 1994), then resuspended in Tyrode's buffer (137 mM NACl, 2.68 mM KCl, 2 mM CaCl2, 1 mM MgCl2, 0.36 mM NaH2 PO4, 11.9 mM NaHCO3, 5 mM HEPES, 0.1% glucose, 0.35% bovine serum albumin, pH 7.35). Clot lysis assays were performed as previously described (Fay et al., 1994). […] The fluorescence of this dilution was measured and % clot lysis was calculated, as previously described (Fay et al., 1994). […] The capacity of P1-P14 peptide to accelerate fibrinolysis in vitro, both in the absence and presence of platelets was also evaluated. […] After 30 min at 37° C., fibrinolysis was initiated by the addition of t-PA (20 nM), and % clot lysis was determined 60 min later. […]
# [4] = tested on: fibrin clot; test: In vitro clot lysis assay, fluorescein-labeled fibrin clots with recombinant PAI-1; type: biochemical, human
# Procedure: Clot lysis assays were performed as previously described (Fay et al., 1994). A mixture of glu-plasminogen (0.2 μM), fluorescein-labeled fibrinogen (3 μM), PAI-1 (0.7 μM) was prepared. t-PA (20 nM) was added 30 minutes after clot formation and clot lysis was allowed to occur for 60 minutes at 37° C., after which the tubes were centrifuged (16,000×3 min), and 80 μL of the supernatant was removed and diluted into 1.2 mL of 10 mM Tris-HCl, 140 mM NaCl, pH 7.5. The fluorescence of this dilution was measured and % clot lysis was calculated, as previously described (Fay et al., 1994). The capacity of P1-P14 peptide to accelerate fibrinolysis in vitro, both in the absence and presence of platelets was also evaluated. Fluorescein-labeled fibrin clots were formed in the presence of recombinant PAI-1 (0.7 μM) and either P1-P14 peptide (55 μM), an irrelevant 14 amino acid peptide (55 μM), or no peptide. After 30 min at 37° C., fibrinolysis was initiated by the addition of t-PA (20 nM), and % clot lysis was determined 60 min later. Addition of P1-P14 peptide increased clot lysis from 28±7% to 90±6% (mean±SEM of triplicate experiments), whereas the control peptide had no effect on clot lysis either in the presence or absence of PAI-1 (FIG. 6a). […]
substance,measurement,setting,value
"Ac-DRVYIHPFHLLVYS [SEQ ID NO: 6, Ac-Asp-Arg-Val-Tyr-Ile-His-Pro-Phe-His-Leu-Leu-Val-Tyr-Ser, reference compound]",formation of SDS stable PAI-1:enzyme complexes after peptide treatment,[1],did not prevent formation
same,PAI-1 T1/2,[2],did not affect
same,PAI-1 T1/2,[2]; listed as control 14 amino acid peptide,no effect
same,PAI-1 T1/2,[2]; listed as irrelevant peptide,1.5 h
same,lysis of platelet-rich clots at 90 minutes,[3],did not affect clot lysis
same,effect on clot lysis in the absence of PAI-1,[4]; absence of PAI-1,no effect
same,clot lysis at 60 minutes,"[4]; presence of PAI-1 (0.7 μM), peptide 55 μM, t-PA 20 nM, 28±7% without peptide, listed as control peptide",no significant effect
